Assay results from US20230234941A1, “Salts of Compound and Pharmaceutical Compositions Containing the Same” (Shenzhen Forward Pharmaceuticals Co., Limited., priority 2020, published 2023).
Some results were stated once for a whole list of compounds, not compound by compound.

Experiment: Solid solubility test (2 h and 24 h)
Type: physicochemical
Details: for solubility in solvents that mimic physiological conditions: not achieved in some solvents / greater in various solvents; for solubility in all solvents tested: 2 h solid solubility test, all five solvents; for Solubility measured at 24 h: listed as amorphous 1 eq. mesylate salt
Description: samples were weighed for each amorphous salt solid (equivalent to 20 mg of free base), and 10 mL of the following solvents were respectively added: 0.1N HCl solution (pH 1.0), 50 mM phosphate buffer (pH 4.5), FeSSIF-V1 (pH 5.0), FaSSIF-V1 (pH 6.5) and SGF (pH 2.0), […] The suspension was then centrifuged at 37° C., the supernatant was measured for solubility by HPLC, and the solid fraction was measured for XRPD. The target solubility was at least 2 mg (based on free base)/mL.

**Q.** Which “solubility in solvents that mimic physiological conditions” value (listed as 1 eq. hydrochloride salt) does the source give for `C=CC(=O)Nc1cc(Nc2ncnc(-c3cn(C)c4ccccc34)n2)c(OC)cc1N(C)CCN(C)C` [Example 2] here?
**A.** greater than 2 mg/mL

**Q.** Which “solubility in all solvents tested” value does the source give for `C=CC(=O)Nc1cc(Nc2ncnc(-c3cn(C)c4ccccc34)n2)c(OC)cc1N(C)CCN(C)C` [Example 3] here?
**A.** greater than 2 mg/mL

**Q.** What about the “solubility in solvents that mimic physiological conditions” value (listed as 2 eq. hydrochloride salt) of the same molecule?
**A.** greater than 2 mg/mL

**Q.** Which “solubility in all solvents tested” value does the source give for `C=CC(=O)Nc1cc(Nc2ncnc(-c3cn(C)c4ccccc34)n2)c(OC)cc1N(C)CCN(C)C` [Example 4] here?
**A.** greater than 2 mg/mL

**Q.** What about the “Solubility measured at 24 h” value (Test ES3: FeSSIF-V1 (pH 5.0)) of the same molecule?
**A.** greater than 2 mg/mL

**Q.** And the “Solubility measured at 24 h” value (Test ES4: FaSSIF-V1 (pH 6.5))?
**A.** greater than 2 mg/mL

**Q.** And the “solubility in solvents that mimic physiological conditions” value (listed as 1 eq. mesylate salt)?
**A.** greater than 2 mg/mL

**Q.** With `C=CC(=O)Nc1cc(Nc2ncnc(-c3cn(C)c4ccccc34)n2)c(OC)cc1N(C)CCN(C)C` [Example 5] as the molecule, how does the “solubility in all solvents tested” value read?
**A.** greater than 2 mg/mL

**Q.** What about the “solubility in solvents that mimic physiological conditions” value (listed as 2 eq. mesylate salt) of the same molecule?
**A.** greater than 2 mg/mL

**Q.** With `C=CC(=O)Nc1cc(Nc2ncnc(-c3cn(C)c4ccccc34)n2)c(OC)cc1N(C)CCN(C)C` [Example 6] as the molecule, how does the “solubility in all solvents tested” value read?
**A.** greater than 2 mg/mL

**Q.** And the “solubility in solvents that mimic physiological conditions” value (listed as 1 eq. besylate salt)?
**A.** greater than 2 mg/mL

**Q.** Which “solubility in all solvents tested” value does the source give for `C=CC(=O)Nc1cc(Nc2ncnc(-c3cn(C)c4ccccc34)n2)c(OC)cc1N(C)CCN(C)C` [Example 8] here?
**A.** greater than 2 mg/mL

**Q.** And the “solubility in solvents that mimic physiological conditions” value (listed as 1 eq. esylate salt)?
**A.** greater than 2 mg/mL

**Q.** Which “solubility in all solvents tested” value does the source give for `C=CC(=O)Nc1cc(Nc2ncnc(-c3cn(C)c4ccccc34)n2)c(OC)cc1N(C)CCN(C)C` [Example 9] here?
**A.** greater than 2 mg/mL

**Q.** And the “solubility in solvents that mimic physiological conditions” value (listed as 1 eq. maleate salt)?
**A.** greater than 2 mg/mL

**Q.** Which “Solubility measured at 2 h” value (FaSSIF-V1 (pH 6.5) (Test ES4, partly printed ES1), 37° C., based on free base, listed as crystalline 1 eq. hydrobromide salt) does the source give for `C=CC(=O)Nc1cc(Nc2ncnc(-c3cn(C)c4ccccc34)n2)c(OC)cc1N(C)CCN(C)C` [Example 10] here?
**A.** < 2000 µg/mL

**Q.** And the “solubility in solvents that mimic physiological conditions” value (listed as 1 eq. hydrobromide salt)?
**A.** < 2 mg/mL
